Measurements from US12729225B2, “Non-canonical SWI/SNF complex and uses thereof” (Dana-Farber Cancer Institute, Inc., priority 2018, dated 2026).

System: mSWI/SNF complexes
Test: mSWI/SNF complex purification with HA-tagged baits and mass spectrometry (peptide counts)
Parameters: species or system human
[1] = 293_HA-BRD7 bait purification, mass spectrometry, total peptide count per identified protein
[2] = 293_HA-BRD7 bait purification, mass spectrometry, unique peptide count per identified protein

B1: MTX1 (protein, UniProt Q13505 1-466, looked up)
Metaxin-1: MLLGGPPRSPRSGTSPKGPWSSTGHVQFGKSPQTWPRRTRPRSPEPAAPSGVRGSTWTRRRDSPRRAGPTALSRYVGHLWMGRRPPSPEARGPVPRSSAASRARRSLASPGISPGPLTATIGGAVAGGGPRQGRAEAHKEVFPGQRVGKMAAPMELFCWSGGWGLPSVDLDSLAVLTYARFTGAPLKVHKISNPWQSPSGTLPALRTSHGEVISVPHKIITHLRKEKYNADYDLSARQGADTLAFMSLLEEKLLPVLVHTFWIDTKNYVEVTRKWYAEAMPFPLNFFLPGRMQRQYMERLQLLTGEHRPEDEEELEKELYREARECLTLLSQRLGSQKFFFGDAPASLDAFVFSYLALLLQAKLPSGKLQVHLRGLHNLCAYCTHILSLYFPWDGAEVPPQRQTPAGPETEEEPYRRRNQILSVLAGLAAMVGYALLSGIVSIQRATPARAPGTRTLGMAEEDEEE
[1]
  Total: 1
[2]
  Unique: 1

B2: RPN2 (protein, UniProt P04844 23-631, looked up)
Dolichyl-diphosphooligosacchar …: LTPTHYLTKHDVERLKASLDRPFTNLESAFYSIVGLSSLGAQVPDAKKACTYIRSNLDPSNVDSLFYAAQASQALSGCEISISNETKDLLLAAVSEDSSVTQIYHAVAALSGFGLPLASQEALSALTARLSKEETVLATVQALQTASHLSQQADLRSIVEEIEDLVARLDELGGVYLQFEEGLETTALFVAATYKLMDHVGTEPSIKEDQVIQLMNAIFSKKNFESLSEAFSVASAAAVLSHNRYHVPVVVVPEGSASDTHEQAILRLQVTNVLSQPLTQATVKLEHAKSVASRATVLQKTSFTPVGDVFELNFMNVKFSSGYYDFLVEVEGDNRYIANTVELRVKISTEVGITNVDLSTVDKDQSIAPKTTRVTYPAKAKGTFIADSHQNFALFFQLVDVNTGAELTPHQTFVRLHNQKTGQEVVFVAEPDNKNVYKFELDTSERKIEFDSASGTYTLYLIIGDATLKNPILWNVADVVIKFPEEEAPSTVLSQNLFTPKQEIQHLFREPEKRPPTVVSNTFTALILSPLLLLFALWIRIGANVSNFTFAPSTIIFHLGHAAMLGLMYVYWTQLNMFQTLKYLAILGSVTFLAGNRMLAQQAVKRTAH
293_HA-BRD7: HA-BRD7 bait purification, total peptide count per co-purified protein
  Total: 13
293_HA-BRD7: HA-BRD7 bait purification, unique peptide count per co-purified protein
  Unique: 12

B3: XPO5 (protein, UniProt Q9HAV4 2-1204, looked up)
Exportin-5: AMDQVNALCEQLVKAVTVMMDPNSTQRYRLEALKFCEEFKEKCPICVPCGLRLAEKTQVAIVRHFGLQILEHVVKFRWNGMSRLEKVYLKNSVMELIANGTLNILEEENHIKDALSRIVVEMIKREWPQHWPDMLIELDTLSKQGETQTELVMFILLRLAEDVVTFQTLPPQRRRDIQQTLTQNMERIFSFLLNTLQENVNKYQQVKTDTSQESKAQANCRVGVAALNTLAGYIDWVSMSHITAENCKLLEILCLLLNEQELQLGAAECLLIAVSRKGKLEDRKPLMVLFGDVAMHYILSAAQTADGGGLVEKHYVFLKRLCQVLCALGNQLCALLGADSDVETPSNFGKYLESFLAFTTHPSQFLRSSTQMTWGALFRHEILSRDPLLLAIIPKYLRASMTNLVKMGFPSKTDSPSCEYSRFDFDSDEDFNAFFNSSRAQQGEVMRLACRLDPKTSFQMAGEWLKYQLSTFLDAGSVNSCSAVGTGEGSLCSVFSPSFVQWEAMTLFLESVITQMFRTLNREEIPVNDGIELLQMVLNFDTKDPLILSCVLTNVSALFPFVTYRPEFLPQVFSKLFSSVTFETVEESKAPRTRAVRNVRRHACSSIIKMCRDYPQLVLPNFDMLYNHVKQLLSNELLLTQMEKCALMEALVLISNQFKNYERQKVFLEELMAPVASIWLSQDMHRVLSDVDAFIAYVGTDQKSCDPGLEDPCGLNRARMSFCVYSILGVVKRTCWPTDLEEAKAGGFVVGYTSSGNPIFRNPCTEQILKLLDNLLALIRTHNTLYAPEMLAKMAEPFTKALDMLDAEKSAILGLPQPLLELNDSPVFKTVLERMQRFFSTLYENCFHILGKAGPSMQQDFYTVEDLATQLLSSAFVNLNNIPDYRLRPMLRVFVKPLVLFCPPEHYEALVSPILGPLFTYLHMRLSQKWQVINQRSLLCGEDEAADENPESQEMLEEQLVRMLTREVMDLITVCCVSKKGADHSSAPPADGDDEEMMATEVTPSAMAELTDLGKCLMKHEDVCTALLITAFNSLAWKDTLSCQRTTSQLCWPLLKQVLSGTLLADAVTWLFTSVLKGLQMHGQHDGCMASLVHLAFQIYEALRPRYLEIRAVMEQIPEIQKDSLDQFDCKLLNPSLQKVADKRRKDQFKRLIAGCIGKPLGEQFRKEVHIKNLPSLFKKTKPMLETEVLDNDGGGLATIFEP
[1]
  Total: 1
[2]
  Unique: 1

B4: SLC33A1 (protein)
chain: MSPTISHKDSSRQRRPGNFSHSLDMKSGPLPPGGWDDSHLDSAGREGDREALLGDTGTGDFLKAPQSFRAELSSILLLLFLYVLQGIPLGLAGSIPLILQSKNVSYTDQAFFSFVFWPFSLKLLWAPLVDAVYVKNFGRRKSWLVPTQYILGLFMIYLSTQVDRLLGNTDDRTPDVIALTVAFFLFEFLAATQDIAVDGWALTMLSRENVGYASTCNSVGQTAGYFLGNVLFLALESADFCNKYLRFQPQPRGIVTLSDFLFFWGTVFLITTTLVALLKKENEVSVVKEETQGITDTYKLLFAIIKMPAVLTFCLLILTAKIGFSAADAVTGLKLVEEGVPKEHLALLAVPMVPLQIILPLIISKYTAGPQPLNTFYKAMPYRLLLGLEYALLVWWTPKVEHQGGFPIYYYIVVLLSYALHQVTVYSMYVSIMAFNAKVSDPLIGGTYMTLLNTVSNLGGNWPSTVALWLVDPLTVKECVGASNQNCRTPDAVELCKKLGGSCVTALDGYYVESIICVFIGFGWWFFLGPKFKKLQDEGSSSWKCKRNN
[1]
  Total: 1
[2]
  Unique: 1

B5: RANGAP1 (protein, UniProt P46060 2-587, looked up)
Ran GTPase-activating protein …: ASEDIAKLAETLAKTQVAGGQLSFKGKSLKLNTAEDAKDVIKEIEDFDSLEALRLEGNTVGVEAARVIAKALEKKSELKRCHWSDMFTGRLRTEIPPALISLGEGLITAGAQLVELDLSDNAFGPDGVQGFEALLKSSACFTLQELKLNNCGMGIGGGKILAAALTECHRKSSAQGKPLALKVFVAGRNRLENDGATALAEAFRVIGTLEEVHMPQNGINHPGITALAQAFAVNPLLRVINLNDNTFTEKGAVAMAETLKTLRQVEVINFGDCLVRSKGAVAIADAIRGGLPKLKELNLSFCEIKRDAALAVAEAMADKAELEKLDLNGNTLGEEGCEQLQEVLEGFNMAKVLASLSDDEDEEEEEEGEEEEEEAEEEEEEDEEEEEEEEEEEEEEPQQRGQGEKSATPSRKILDPNTGEPAPVLSSPPPADVSTFLAFPSPEKLLRLGPKSSVLIAQQTDTSDPEKVVSAFLKVSSVFKDEATVRMAVQDAVDALMQKAFNSSSFNSNTFLTRLLVHMGLLKSEDKVKAIANLYGPLMALNHMVQQDYFPKALAPLLLAFVTKPNSALESCSFARHSLLQTLYKV
[1]
  Total: 1
[2]
  Unique: 1

B6: PPT1 (protein, UniProt P50897 28-306, looked up)
Palmitoyl-protein …: DPPAPLPLVIWHGMGDSCCNPLSMGAIKKMVEKKIPGIYVLSLEIGKTLMEDVENSFFLNVNSQVTTVCQALAKDPKLQQGYNAMGFSQGGQFLRAVAQRCPSPPMINLISVGGQHQGVFGLPRCPGESSHICDFIRKTLNAGAYSKVVQERLVQAEYWHDPIKEDVYRNHSIFLADINQERGINESYKKNLMALKKFVMVKFLNDSIVDPVDSEWFGFYRSGQAKETIPLQETSLYTQDRLGLKEMDNAGQLVFLATEGDHLQLSEEWFYAHIIPFLG
[1]
  Total: 1
[2]
  Unique: 1

B7: TSR1 (protein, UniProt Q2NL82 1-804, looked up)
Pre-rRNA-processing protein …: MAAHRPGPLKQQNKAHKGGRHRGRGSAQRDGKGRLALKTLSKKVRKELSRVDQRHRASQLRKQKKEAVLAEKRQLGGKDGPPHQVLVVPLHSRISLPEAMQLLQDRDTGTVHLNELGNTQNFMLLCPRLKHRWFFTSARPGDLHVVLDMAKVADTILFLLDPLEGWDSTGDYCLSCLFAQGLPTYTLAVQGISGLPLKKQIDTRKKLSKAVEKRFPHDKLLLLDTQQEAGMLLRQLANQKQQHLAFRDRRAYLFAHAVDFVPSEENNLVGTLKISGYVRGQTLNVNRLLHIVGYGDFQMKQIDAPGDPFPLNPRGIKPQKDPDMAMEICATDAVDDMEEGLKVLMKADPGRQESLQAEVIPDPMEGEQTWPTEEELSEAKDFLKESSKVVKKVPKGTSSYQAEWILDGGSQSGGEGDEYEYDDMEHEDFMEEESQDESSEEEEEYETMTIGESVHDDLYDKKVDEEAEAKMLEKYKQERLEEMFPDEVDTPRDVAARIRFQKYRGLKSFRTSPWDPKENLPQDYARIFQFQNFTNTRKSIFKEVEEKEVEGAEVGWYVTLHVSEVPVSVVECFRQGTPLIAFSLLPHEQKMSVLNMVVRRDPGNTEPVKAKEELIFHCGFRRFRASPLFSQHTAADKHKLQRFLTADMALVATVYAPITFPPASVLLFKQKSNGMHSLIATGHLMSVDPDRMVIKRVVLSGHPFKIFTKMAVVRYMFFNREDVLWFKPVELRTKWGRRGHIKEPLGTHGHMKCSFDGKLKSQDTVLMNLYKRVFPKWTYDPYVPEPVPWLKSEISSTVPQGGME
[1]
  Total: 1
[2]
  Unique: 1

B8: HNRNPDL (protein, UniProt O14979 1-420, looked up)
Heterogeneous nuclear …: MEVPPRLSHVPPPLFPSAPATLASRSLSHWRPRPPRQLAPLLPSLAPSSARQGARRAQRHVTAQQPSRLAGGAAIKGGRRRRPDLFRRHFKSSSIQRSAAAAAATRTARQHPPADSSVTMEDMNEYSNIEEFAEGSKINASKNQQDDGKMFIGGLSWDTSKKDLTEYLSRFGEVVDCTIKTDPVTGRSRGFGFVLFKDAASVDKVLELKEHKLDGKLIDPKRAKALKGKEPPKKVFVGGLSPDTSEEQIKEYFGAFGEIENIELPMDTKTNERRGFCFITYTDEEPVKKLLESRYHQIGSGKCEIKVAQPKEVYRQQQQQQKGGRGAAAGGRGGTRGRGRGQGQNWNQGFNNYYDQGYGNYNSAYGGDQNYSGYGGYDYTGYNYGNYGYGQGYADYSGQQSTYGKASRGGGNHQNNYQPY
[1]
  Total: 1
[2]
  Unique: 1

B9: PRDX6 (protein, UniProt P30041 2-224, looked up)
Peroxiredoxin-6: PGGLLLGDVAPNFEANTTVGRIRFHDFLGDSWGILFSHPRDFTPVCTTELGRAAKLAPEFAKRNVKLIALSIDSVEDHLAWSKDINAYNCEEPTEKLPFPIIDDRNRELAILLGMLDPAEKDEKGMPVTARVVFVFGPDKKLKLSILYPATTGRNFDEILRVVISLQLTAEKRVATPVDWKDGDSVMVLPTIPEEEAKKLFPKGVFTKELPSGKKYLRYTPQP
[1]
  Total: 1
[2]
  Unique: 1

B10: SAP18 (protein, UniProt O00422 2-153, looked up)
Histone deacetylase complex …: AVESRVTQEEIKKEPEKPIDREKTCPLLLRVFTTNNGRHHRMDEFSRGNVPSSELQIYTWMDATLKELTSLVKEVYPEARKKGTHFNFAIVFTDVKRPGYRVKEIGSTMSGRKGTDDSMTLQSQKFQIGDYLDIAITPPNRAPPPSGRMRPY
[1]
  Total: 1
[2]
  Unique: 1
